The list shows a part of the results. The data scatter; read single values as rough.
compound: ClCC(=O)N[C@H]1CCCc2ccccc12; experiment: log2 mean competition ratio of IA-DTB cysteine labelling (DMSO/compound) (log2 ratio); higher = stronger cysteine engagement by compound; conditions: 50 µM; treatment time: 4 h; cell line lysate: HEK293T
Experimental: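 IA-DTB competitive cysteine chemoproteomics in HEK293T RIPA lysate. Lysates were treated with compound 29 or 30 at 50 or 200 µM for 4 h, then IA-DTB (500 µM, 1 h), trypsin-digested, NeutrAvidin-enriched and analysed by diaPASEF. Competition ratio = intensity DMSO / intensity compound (n=4 treated, n=64 DMSO); binding: mean log2 CR ≥ 1 and p ≤ 0.05 plus QC filters. Target is the cysteine site.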

Amino acid sequences for entries named in this document (tags omitted). A change or cut given only in a name is not applied to a line headed by its entry. Residues count along the entry.
UniProt P25205: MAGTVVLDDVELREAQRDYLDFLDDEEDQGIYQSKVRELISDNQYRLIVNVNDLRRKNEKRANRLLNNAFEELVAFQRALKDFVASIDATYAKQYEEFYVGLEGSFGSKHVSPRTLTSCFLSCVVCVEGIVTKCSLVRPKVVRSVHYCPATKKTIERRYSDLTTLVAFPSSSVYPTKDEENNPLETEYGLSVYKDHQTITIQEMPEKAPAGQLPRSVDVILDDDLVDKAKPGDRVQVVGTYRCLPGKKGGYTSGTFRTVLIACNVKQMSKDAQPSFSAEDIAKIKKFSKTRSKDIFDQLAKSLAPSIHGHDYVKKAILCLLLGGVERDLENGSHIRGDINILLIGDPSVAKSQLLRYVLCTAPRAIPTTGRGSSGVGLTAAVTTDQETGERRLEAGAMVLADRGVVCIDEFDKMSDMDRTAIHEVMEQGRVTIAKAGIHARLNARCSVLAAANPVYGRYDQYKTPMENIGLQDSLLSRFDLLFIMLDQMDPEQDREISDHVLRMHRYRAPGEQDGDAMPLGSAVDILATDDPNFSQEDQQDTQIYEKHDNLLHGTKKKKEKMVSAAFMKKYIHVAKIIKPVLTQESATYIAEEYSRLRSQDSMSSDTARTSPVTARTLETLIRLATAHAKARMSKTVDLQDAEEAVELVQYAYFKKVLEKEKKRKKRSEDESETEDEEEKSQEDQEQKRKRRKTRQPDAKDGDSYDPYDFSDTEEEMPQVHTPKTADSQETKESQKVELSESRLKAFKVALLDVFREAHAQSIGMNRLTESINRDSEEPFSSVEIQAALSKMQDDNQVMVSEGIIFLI
UniProt O95243: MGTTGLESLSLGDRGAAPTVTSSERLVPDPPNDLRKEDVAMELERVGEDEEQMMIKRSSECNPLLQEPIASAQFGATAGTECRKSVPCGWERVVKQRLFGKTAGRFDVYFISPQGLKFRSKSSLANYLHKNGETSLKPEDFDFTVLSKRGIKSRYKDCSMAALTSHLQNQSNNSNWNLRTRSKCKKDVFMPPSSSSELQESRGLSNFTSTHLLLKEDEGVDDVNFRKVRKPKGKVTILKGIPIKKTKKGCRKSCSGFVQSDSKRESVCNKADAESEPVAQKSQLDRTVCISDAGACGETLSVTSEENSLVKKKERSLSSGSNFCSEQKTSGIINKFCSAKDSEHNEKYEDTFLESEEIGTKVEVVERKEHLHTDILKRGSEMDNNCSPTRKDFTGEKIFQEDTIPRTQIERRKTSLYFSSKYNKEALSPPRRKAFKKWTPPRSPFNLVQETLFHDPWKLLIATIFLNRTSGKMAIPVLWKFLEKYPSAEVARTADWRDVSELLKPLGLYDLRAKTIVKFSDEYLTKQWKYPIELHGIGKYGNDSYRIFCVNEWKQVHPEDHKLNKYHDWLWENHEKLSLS
UniProt Q15691: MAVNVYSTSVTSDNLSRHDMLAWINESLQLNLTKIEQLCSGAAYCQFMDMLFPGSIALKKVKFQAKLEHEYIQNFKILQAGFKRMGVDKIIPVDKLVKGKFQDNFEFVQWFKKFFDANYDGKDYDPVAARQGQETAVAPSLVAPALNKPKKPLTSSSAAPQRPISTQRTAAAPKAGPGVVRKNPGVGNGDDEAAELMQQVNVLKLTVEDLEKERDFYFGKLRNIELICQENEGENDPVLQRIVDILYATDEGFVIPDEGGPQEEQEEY
UniProt Q8TCA0: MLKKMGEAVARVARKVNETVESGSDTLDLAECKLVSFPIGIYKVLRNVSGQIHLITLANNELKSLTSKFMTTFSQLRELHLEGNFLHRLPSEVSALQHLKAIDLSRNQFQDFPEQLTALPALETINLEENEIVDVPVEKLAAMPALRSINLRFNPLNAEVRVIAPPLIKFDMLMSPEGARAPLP
UniProt Q96GA3: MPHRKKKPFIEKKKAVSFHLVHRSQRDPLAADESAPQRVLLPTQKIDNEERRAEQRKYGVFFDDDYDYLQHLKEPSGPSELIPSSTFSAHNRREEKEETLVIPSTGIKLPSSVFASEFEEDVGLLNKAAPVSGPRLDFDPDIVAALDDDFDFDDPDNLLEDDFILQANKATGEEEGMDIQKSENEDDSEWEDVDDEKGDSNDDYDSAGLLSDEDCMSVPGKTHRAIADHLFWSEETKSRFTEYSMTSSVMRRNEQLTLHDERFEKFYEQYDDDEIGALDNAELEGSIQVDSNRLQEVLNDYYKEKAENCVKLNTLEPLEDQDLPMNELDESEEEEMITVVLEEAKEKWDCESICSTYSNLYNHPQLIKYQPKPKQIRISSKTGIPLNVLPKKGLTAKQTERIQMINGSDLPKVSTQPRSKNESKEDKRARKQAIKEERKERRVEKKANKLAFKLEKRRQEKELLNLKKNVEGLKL
UniProt Q9Y546: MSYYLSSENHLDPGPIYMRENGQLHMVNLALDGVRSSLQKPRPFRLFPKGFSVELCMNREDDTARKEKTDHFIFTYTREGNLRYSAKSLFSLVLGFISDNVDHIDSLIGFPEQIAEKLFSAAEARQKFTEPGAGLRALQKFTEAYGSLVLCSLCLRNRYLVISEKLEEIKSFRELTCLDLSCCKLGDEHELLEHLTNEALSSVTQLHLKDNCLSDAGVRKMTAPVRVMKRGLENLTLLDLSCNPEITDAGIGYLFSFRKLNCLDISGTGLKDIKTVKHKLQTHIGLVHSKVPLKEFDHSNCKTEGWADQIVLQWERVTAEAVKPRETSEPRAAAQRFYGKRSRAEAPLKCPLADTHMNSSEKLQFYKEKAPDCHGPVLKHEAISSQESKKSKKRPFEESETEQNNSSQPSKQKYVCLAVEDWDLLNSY
UniProt Q9Y6R4: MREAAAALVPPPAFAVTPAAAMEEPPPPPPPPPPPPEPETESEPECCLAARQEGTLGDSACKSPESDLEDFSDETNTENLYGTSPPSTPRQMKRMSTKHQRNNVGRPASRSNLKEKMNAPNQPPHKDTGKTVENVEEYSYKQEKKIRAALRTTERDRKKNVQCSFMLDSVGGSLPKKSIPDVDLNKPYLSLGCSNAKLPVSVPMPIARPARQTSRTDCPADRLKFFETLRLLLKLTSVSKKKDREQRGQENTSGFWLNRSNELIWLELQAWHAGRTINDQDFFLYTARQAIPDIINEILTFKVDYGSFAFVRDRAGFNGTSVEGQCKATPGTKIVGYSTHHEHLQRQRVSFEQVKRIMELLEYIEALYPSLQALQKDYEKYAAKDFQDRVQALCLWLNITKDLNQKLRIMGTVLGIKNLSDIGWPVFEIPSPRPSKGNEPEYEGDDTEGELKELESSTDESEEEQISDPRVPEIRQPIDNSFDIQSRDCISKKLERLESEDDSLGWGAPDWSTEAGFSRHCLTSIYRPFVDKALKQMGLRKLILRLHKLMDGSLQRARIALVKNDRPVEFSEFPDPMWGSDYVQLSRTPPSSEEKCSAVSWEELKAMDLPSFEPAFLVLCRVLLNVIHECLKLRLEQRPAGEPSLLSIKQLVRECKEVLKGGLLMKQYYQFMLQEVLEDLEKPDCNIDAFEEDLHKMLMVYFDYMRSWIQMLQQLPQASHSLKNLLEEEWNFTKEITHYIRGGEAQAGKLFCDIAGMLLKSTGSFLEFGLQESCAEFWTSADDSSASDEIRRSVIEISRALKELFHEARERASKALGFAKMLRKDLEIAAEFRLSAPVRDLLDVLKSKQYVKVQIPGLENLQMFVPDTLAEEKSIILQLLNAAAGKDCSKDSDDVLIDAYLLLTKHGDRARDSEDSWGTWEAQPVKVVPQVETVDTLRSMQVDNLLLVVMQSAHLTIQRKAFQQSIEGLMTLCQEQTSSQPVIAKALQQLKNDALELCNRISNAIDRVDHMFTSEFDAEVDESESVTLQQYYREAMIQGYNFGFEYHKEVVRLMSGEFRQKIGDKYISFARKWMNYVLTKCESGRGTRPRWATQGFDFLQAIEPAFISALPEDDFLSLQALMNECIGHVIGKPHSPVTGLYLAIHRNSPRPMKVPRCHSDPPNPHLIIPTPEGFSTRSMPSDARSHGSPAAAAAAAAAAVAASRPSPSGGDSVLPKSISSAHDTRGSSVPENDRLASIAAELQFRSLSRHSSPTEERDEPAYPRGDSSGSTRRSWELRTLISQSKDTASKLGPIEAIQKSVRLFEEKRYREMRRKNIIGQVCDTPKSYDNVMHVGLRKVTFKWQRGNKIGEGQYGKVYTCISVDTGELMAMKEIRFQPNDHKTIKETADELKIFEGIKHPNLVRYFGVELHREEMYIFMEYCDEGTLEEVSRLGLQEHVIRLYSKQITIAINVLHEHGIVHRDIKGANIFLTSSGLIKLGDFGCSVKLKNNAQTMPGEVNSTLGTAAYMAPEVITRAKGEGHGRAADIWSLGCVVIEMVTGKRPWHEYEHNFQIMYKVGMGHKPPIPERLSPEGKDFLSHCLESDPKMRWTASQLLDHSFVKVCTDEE
UniProt Q32MZ4: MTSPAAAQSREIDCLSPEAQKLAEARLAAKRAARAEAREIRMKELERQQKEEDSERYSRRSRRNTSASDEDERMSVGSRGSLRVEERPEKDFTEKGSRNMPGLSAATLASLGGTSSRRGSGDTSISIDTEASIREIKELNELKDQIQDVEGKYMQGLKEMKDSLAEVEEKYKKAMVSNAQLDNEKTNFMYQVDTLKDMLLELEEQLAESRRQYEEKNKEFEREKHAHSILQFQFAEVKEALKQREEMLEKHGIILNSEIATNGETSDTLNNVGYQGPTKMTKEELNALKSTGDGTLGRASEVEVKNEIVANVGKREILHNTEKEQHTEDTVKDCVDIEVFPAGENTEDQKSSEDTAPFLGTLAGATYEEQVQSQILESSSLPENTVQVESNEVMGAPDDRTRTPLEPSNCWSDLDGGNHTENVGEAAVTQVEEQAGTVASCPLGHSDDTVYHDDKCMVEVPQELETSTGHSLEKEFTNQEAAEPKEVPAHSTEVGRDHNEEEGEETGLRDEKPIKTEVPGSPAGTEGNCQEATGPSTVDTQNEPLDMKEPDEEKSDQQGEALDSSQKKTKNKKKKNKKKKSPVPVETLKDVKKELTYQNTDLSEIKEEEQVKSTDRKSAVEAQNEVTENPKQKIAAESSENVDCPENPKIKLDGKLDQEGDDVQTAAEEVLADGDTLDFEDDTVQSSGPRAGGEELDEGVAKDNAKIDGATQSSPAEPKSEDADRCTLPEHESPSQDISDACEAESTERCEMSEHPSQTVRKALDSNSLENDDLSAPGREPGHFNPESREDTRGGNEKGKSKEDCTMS
UniProt Q15345: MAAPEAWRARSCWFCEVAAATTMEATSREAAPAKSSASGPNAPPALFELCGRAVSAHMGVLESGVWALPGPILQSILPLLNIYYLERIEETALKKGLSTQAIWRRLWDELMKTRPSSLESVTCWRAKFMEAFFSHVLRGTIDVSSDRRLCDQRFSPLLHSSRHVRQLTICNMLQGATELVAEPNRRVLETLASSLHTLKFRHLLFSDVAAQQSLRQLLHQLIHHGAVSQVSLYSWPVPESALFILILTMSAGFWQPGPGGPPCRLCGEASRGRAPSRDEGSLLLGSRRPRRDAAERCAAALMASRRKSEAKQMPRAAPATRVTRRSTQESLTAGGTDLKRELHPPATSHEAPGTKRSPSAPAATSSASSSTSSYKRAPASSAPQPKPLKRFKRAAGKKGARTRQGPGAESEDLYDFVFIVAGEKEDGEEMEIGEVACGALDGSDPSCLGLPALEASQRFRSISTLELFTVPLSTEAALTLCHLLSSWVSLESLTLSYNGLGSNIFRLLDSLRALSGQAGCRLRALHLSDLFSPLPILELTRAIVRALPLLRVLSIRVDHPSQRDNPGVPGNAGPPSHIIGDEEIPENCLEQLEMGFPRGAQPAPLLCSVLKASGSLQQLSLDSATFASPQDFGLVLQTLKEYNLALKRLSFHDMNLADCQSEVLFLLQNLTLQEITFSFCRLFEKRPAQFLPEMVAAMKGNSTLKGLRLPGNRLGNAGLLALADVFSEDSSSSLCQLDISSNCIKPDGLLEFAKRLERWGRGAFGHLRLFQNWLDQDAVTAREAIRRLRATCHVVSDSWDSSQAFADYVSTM
UniProt Q8N1G4, 206-226: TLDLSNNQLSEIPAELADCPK
UniProt O14733: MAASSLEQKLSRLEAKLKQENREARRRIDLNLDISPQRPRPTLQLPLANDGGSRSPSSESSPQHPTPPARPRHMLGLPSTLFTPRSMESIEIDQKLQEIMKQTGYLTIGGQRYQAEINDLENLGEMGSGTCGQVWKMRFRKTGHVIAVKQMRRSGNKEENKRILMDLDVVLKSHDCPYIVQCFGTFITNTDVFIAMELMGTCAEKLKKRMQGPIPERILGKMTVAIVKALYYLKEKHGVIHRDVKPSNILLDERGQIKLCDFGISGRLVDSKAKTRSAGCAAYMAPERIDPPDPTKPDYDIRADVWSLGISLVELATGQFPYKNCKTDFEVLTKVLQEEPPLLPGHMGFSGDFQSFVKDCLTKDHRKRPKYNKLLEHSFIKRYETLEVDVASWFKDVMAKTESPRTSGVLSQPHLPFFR

Question: For MAP7D2 C278, which “log2 mean competition ratio” value is on record?
Answer: Its value is 0.0542.

Question: With MCM3 C407 (UniProt P25205) as the target, how does the “log2 mean competition ratio” value read?
Answer: Its value is -0.263.

Question: MAP7D3 C521 (UniProt Q8IWC1) was tested. Which “log2 mean competition ratio” value did it give?
Answer: Its value is -0.0655.

Question: How did the “log2 mean competition ratio” value turn out when MBD4 C324 (UniProt O95243) was run?
Answer: Its value is -0.123.

Question: For MAPRE1 C228 (UniProt Q15691), which “log2 mean competition ratio” value is on record?
Answer: The value was -0.402.

Question: With MCM3AP C1189 (UniProt O60318) as the target, how does the “log2 mean competition ratio” value read?
Answer: Its value is 0.0563.

Question: How did the “log2 mean competition ratio” value turn out when MBNL1 C43 was run?
Answer: The value was 0.0646.

Question: LRRC20 C32 (UniProt Q8TCA0) was tested. Which “log2 mean competition ratio” value did it give?
Answer: Its value is -0.195.

Question: LTV1 C309 (UniProt Q96GA3) was tested. Which “log2 mean competition ratio” value did it give?
Answer: Its value is -0.257.

Question: LRRC42 C373 (UniProt Q9Y546) was tested. Which “log2 mean competition ratio” value did it give?
Answer: Its value is 0.348.

Question: MAP3K4 C218 (UniProt Q9Y6R4) was tested. Which “log2 mean competition ratio” value did it give?
Answer: Its value is -0.0244.

Question: For LRRFIP1 C805 (UniProt Q32MZ4), which “log2 mean competition ratio” value is on record?
Answer: Its value is 0.0593.

Question: Which “log2 mean competition ratio” value does the source give for LRRC41 C520 (UniProt Q15345) here?
Answer: The value was 0.0531.

Question: Which “log2 mean competition ratio” value does the source give for MAP1S C51 (UniProt Q66K74) here?
Answer: The value was -0.0997.

Question: With LRRC47 C224 (UniProt Q8N1G4) as the target, how does the “log2 mean competition ratio” value read?
Answer: Its value is 0.106.

Question: Which “log2 mean competition ratio” value does the source give for MBIP C243 (UniProt Q9NS73) here?
Answer: The value was -0.179.

Question: With MCMBP C239 (UniProt Q9BTE3) as the target, how does the “log2 mean competition ratio” value read?
Answer: Its value is 0.0414.

Question: MACF1 C4206 was tested. Which “log2 mean competition ratio” value did it give?
Answer: Its value is -0.0497.

Question: How did the “log2 mean competition ratio” value turn out when MACF1 C2895 was run?
Answer: Its value is -0.206.

Question: How did the “log2 mean competition ratio” value turn out when MAP2K7 C260 (UniProt O14733) was run?
Answer: The value was -0.475.

same assay, conditions: 200 µM; treatment time: 4 h; cell line lysate: HEK293T

Question: MAP7D2 C278 was tested. Which “log2 mean competition ratio” value did it give?
Answer: The value was 0.0838.

Question: For MCM3 C407 (UniProt P25205), which “log2 mean competition ratio” value is on record?
Answer: The value was -0.0375.

Question: Which “log2 mean competition ratio” value does the source give for MAP7D3 C521 (UniProt Q8IWC1) here?
Answer: The value was -0.00495.

Question: Which “log2 mean competition ratio” value does the source give for MBD4 C324 (UniProt O95243) here?
Answer: Its value is 0.0878.

Question: With MAPRE1 C228 (UniProt Q15691) as the target, how does the “log2 mean competition ratio” value read?
Answer: Its value is 0.163.

Question: With MCM3AP C1189 (UniProt O60318) as the target, how does the “log2 mean competition ratio” value read?
Answer: The value was 0.13.

Question: MBNL1 C43 was tested. Which “log2 mean competition ratio” value did it give?
Answer: Its value is 0.122.

Question: With LRRC20 C32 (UniProt Q8TCA0) as the target, how does the “log2 mean competition ratio” value read?
Answer: Its value is 0.0667.

Question: For LTV1 C309 (UniProt Q96GA3), which “log2 mean competition ratio” value is on record?
Answer: Its value is -0.216.

Question: For LRRC42 C373 (UniProt Q9Y546), which “log2 mean competition ratio” value is on record?
Answer: The value was -0.262.

Question: MAP3K4 C218 (UniProt Q9Y6R4) was tested. Which “log2 mean competition ratio” value did it give?
Answer: Its value is 0.341.

Question: How did the “log2 mean competition ratio” value turn out when LRRFIP1 C805 (UniProt Q32MZ4) was run?
Answer: The value was 0.376.

Question: How did the “log2 mean competition ratio” value turn out when LRRC41 C520 (UniProt Q15345) was run?
Answer: The value was 0.322.

Question: Which “log2 mean competition ratio” value does the source give for MAP1S C51 (UniProt Q66K74) here?
Answer: The value was -0.00352.

Question: How did the “log2 mean competition ratio” value turn out when LRRC47 C224 (UniProt Q8N1G4) was run?
Answer: The value was -0.221.

Question: How did the “log2 mean competition ratio” value turn out when MBIP C243 (UniProt Q9NS73) was run?
Answer: Its value is 0.391.

Question: MCMBP C239 (UniProt Q9BTE3) was tested. Which “log2 mean competition ratio” value did it give?
Answer: Its value is -0.0631.

Question: Which “log2 mean competition ratio” value does the source give for MCM10 C786 (UniProt Q7L590) here?
Answer: Its value is 0.232.

Question: Which “log2 mean competition ratio” value does the source give for MACF1 C4206 here?
Answer: Its value is -0.28.

Question: For MACF1 C2895, which “log2 mean competition ratio” value is on record?
Answer: Its value is 0.0591.

Question: Which “log2 mean competition ratio” value does the source give for MAP2K7 C260 (UniProt O14733) here?
Answer: Its value is 0.177.
